Data taken from patent US12558403B2, “Anti-tumor fusion protein, preparation method therefor and application thereof” (GUANGDONG TAIHE MEDICINE SCIENCE & TECHNOLOGY CO., LTD, priority 2020, dated 2026).
Not every detail of the peptide structures is certain; ends, links or a residue may be inferred.

Tested on: Lewis lung cancer
Assay: Mouse Lewis lung cancer xenograft model
Assay type: in vivo
Details: 5 μg/mouse intraperitoneal, once every other day, 8 in total; for Tumor weight: dissection after 21 d

SMILES | Tumor inhibition rate (%) | Tumor weight [g]
CC(C)C[C@@H](NC(=O)[C@H](NC(=O)[C@@H](Cc1ccccc1)NC(=O)[C@@H](CC(=O)O)NC(=O)CNC(=O)[C@H]1CCCN1C(=O)[C@@H](Cc1c[nH]cn1)NC(=O)[C@@H](CO)NC(=O)[C@@H](CCC(N)=O)NC(=O)[C@@H](CO)NC(=O)[C@@H](CCC(=O)O)NC(=O)[C@@H](CCCNC(=N)N)NC(=O)[C@H](NC(=O)[C@H]1CCCN1C(=O)[C@H]1CCCN1C(=O)[C@@H](CCCNC(=N)N)NC(=O)[C@@H](CCCNC(=N)N)NC(=O)[C@@H](CCCNC(=N)N)NC(=O)[C@@H](CCC(N)=O)NC(=O)[C@@H](CCCNC(=N)N)NC(=O)[C@@H](CCCNC(=N)N)NC(=O)[C@@H](CCCCN)NC(=O)[C@@H](CCCCN)NC(=O)[C@@H](CCCNC(=N)N)NC(=O)CNC(=O)[C@H](N)Cc1ccc(O)cc1)C(C)C)C(C)C)C(=O)O [D1] | 66.03 | 0.53 ± 0.16
CC(C)C[C@@H](N)C(=O)N[C@@H](C(=O)N[C@H](Cc1ccccc1)C(=O)N[C@H](CC(=O)O)C(=O)NCC(=O)N1CCC[C@@H]1C(=O)N[C@H](Cc1c[nH]cn1)C(=O)N[C@H](CO)C(=O)N[C@H](CCC(N)=O)C(=O)N[C@H](CO)C(=O)N[C@H](CCC(=O)O)C(=O)N[C@H](CCCNC(=N)N)C(=O)N[C@@H](C(=O)N1CCC[C@@H]1C(=O)N1CCC[C@@H]1C(=O)N[C@H](CCCNC(=N)N)C(=O)N[C@H](CCCNC(=N)N)C(=O)N[C@H](CCCNC(=N)N)C(=O)N[C@H](CCC(N)=O)C(=O)N[C@H](CCCNC(=N)N)C(=O)N[C@H](CCCNC(=N)N)C(=O)N[C@H](CCCCN)C(=O)N[C@H](CCCCN)C(=O)N[C@H](CCCNC(=N)N)C(=O)NCC(=O)N[C@H](Cc1ccc(O)cc1)C(=O)O)C(C)C)C(C)C [D2] | 79.49 | 0.32 ± 0.10
CC(C)C[C@H](N)C(=O)N[C@H](C(=O)N[C@@H](Cc1ccccc1)C(=O)N[C@@H](CC(=O)O)C(=O)NCC(=O)N1CCC[C@H]1C(=O)N[C@@H](Cc1c[nH]cn1)C(=O)N[C@@H](CO)C(=O)N[C@@H](CCC(N)=O)C(=O)N[C@@H](CO)C(=O)N[C@@H](CCC(=O)O)C(=O)N[C@@H](CCCNC(=N)N)C(=O)N[C@H](C(=O)N1CCC[C@H]1C(=O)N1CCC[C@H]1C(=O)N[C@@H](CCCNC(=N)N)C(=O)N[C@@H](CCCNC(=N)N)C(=O)N[C@@H](CCCNC(=N)N)C(=O)N[C@@H](CCC(N)=O)C(=O)N[C@@H](CCCNC(=N)N)C(=O)N[C@@H](CCCNC(=N)N)C(=O)N[C@@H](CCCCN)C(=O)N[C@@H](CCCCN)C(=O)N[C@@H](CCCNC(=N)N)C(=O)NCC(=O)N[C@@H](Cc1ccc(O)cc1)C(=O)O)C(C)C)C(C)C [L2] | 32.70 | 1.05 ± 0.16
